Assay results taken from PubChem BioAssay AID1671190 (National Center for Advancing Translational Sciences (NCATS), 2021).
Hit rate of the full screen: of about 580,000 compounds, about 6,100 (1.1%) were called active. The inconclusive results got no clear call from the source; some entries with a clear call stand among them for comparison. Calls come from the whole dose curve; as a rule, active = well fitted inhibition curve with a large enough effect; inconclusive = small, poorly fitted or top-dose-only effect, or another doubt; inactive = no such curve, though single readings can be large or run the other way. Potencies beside an inconclusive call are fits to weak or partial responses and may not hold up.

Amino acid sequences for entries named in this document (tags omitted). A change or cut given only in a name is not applied to a line headed by its entry.
UniProt P18054: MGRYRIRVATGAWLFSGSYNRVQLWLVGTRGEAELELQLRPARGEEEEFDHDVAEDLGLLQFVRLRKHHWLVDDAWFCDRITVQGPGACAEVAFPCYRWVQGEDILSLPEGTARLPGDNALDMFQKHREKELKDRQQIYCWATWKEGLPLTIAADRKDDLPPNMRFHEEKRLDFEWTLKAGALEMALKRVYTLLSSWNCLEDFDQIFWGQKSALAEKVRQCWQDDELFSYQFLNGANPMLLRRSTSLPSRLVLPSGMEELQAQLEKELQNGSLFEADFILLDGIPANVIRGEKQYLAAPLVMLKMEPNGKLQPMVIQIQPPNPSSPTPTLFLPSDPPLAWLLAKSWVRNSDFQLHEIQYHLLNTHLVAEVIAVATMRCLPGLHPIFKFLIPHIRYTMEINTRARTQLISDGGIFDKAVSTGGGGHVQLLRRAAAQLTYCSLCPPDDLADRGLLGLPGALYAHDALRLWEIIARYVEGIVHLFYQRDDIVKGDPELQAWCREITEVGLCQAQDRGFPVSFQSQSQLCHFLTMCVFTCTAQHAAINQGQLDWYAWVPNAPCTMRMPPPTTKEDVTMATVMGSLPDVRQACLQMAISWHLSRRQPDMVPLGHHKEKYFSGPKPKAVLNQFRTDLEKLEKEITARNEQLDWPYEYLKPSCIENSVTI

target: Polyunsaturated fatty acid lipoxygenase ALOX12 (Homo sapiens) (UniProt P18054); assay: Primary qHTS assay for inhibitors of human arachidonate 12S-lipoxygenase (ALOX12): Round 2; conditions: purified 12hLO, xylenol orange hydroperoxide absorbance; series mostly up to 108 µM
Outline: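 Purified human 12hLO (150 nM final) in 25 mM Hepes, 0.01% Triton X-100, pH 7.0 was preincubated 15 min at room temperature with compound. Then 40 uM arachidonic acid was added, 30 min. Hydroperoxide was read by Fe-XO absorbance ratio 573/405 nm.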
Potency is the fitted concentration of half-maximal effect.

SMILES | Potency
COCCNC(=O)c1cc2c(=O)n3cccc(C)c3nc2n(Cc2ccncc2)c1=N | inconclusive: 79.4 µM [inhibitor, single point]
COCCN(Cc1cc(OC)c(OC)c(OC)c1)Cc1cc(=O)n2ccc(C)cc2n1 | inconclusive: 35.5 µM [inhibitor, partial curve, poor fit]
Nc1c(C(=O)NCc2ccco2)c2nc3ccccc3nc2n1CCc1ccccc1F | inconclusive: 44.7 µM [inhibitor, partial curve]
CCC(C(=O)Nc1sccc1C#N)c1ccccc1 (stereo not given) | inactive
O=C1NCc2ccccc2CC12CCN(Cc1cccc(O)c1)C2 (stereo not given) | inconclusive: 79.4 µM [inhibitor, partial curve, poor fit]
Cc1ccc(C)c(/C(O)=C2\C(=O)C(=O)N(Cc3cccnc3)C2c2cccnc2)c1 (stereo not given) | inconclusive: 44.7 µM [inhibitor, partial curve, poor fit]
O=C(NC(c1ccccc1)c1ccccc1)C1CC1c1ccccc1 (stereo not given) | inactive
COc1ccc(-c2cccc3[nH]c4c(c23)CCN2C(=O)[C@H]3[C@H](C)ON(C)[C@H]3C[C@@H]42)cc1 | inconclusive: 50.1 µM [inhibitor, partial curve, poor fit]
COc1cccc(C2CC(=O)N(c3cccc(C(F)(F)F)c3)C3=C2C(=O)OC3)c1OC (stereo not given) | inactive
Cn1c(OCC2CCCO2)nc2cc(-c3ccccc3)sc2c1=O (stereo not given) | inconclusive: 44.7 µM [inhibitor, partial curve, poor fit]
CC1CC(=O)Nc2ccccc2N1S(=O)(=O)c1ccc(C(F)(F)F)cc1 (stereo not given) | inconclusive: 11.2 µM [inhibitor, full curve, poor fit]
O=C(CCOc1ccccc1)OCC(=O)c1cc2ccccc2o1 | inactive
CCOC(=O)c1c(O)c2ccccc2oc1=O | inconclusive: 31.6 µM [inhibitor, partial curve, poor fit]
COC(=O)c1ccc(N/C(C)=C/C(=O)c2ccc(C)o2)cc1 | inconclusive: 1.58 µM [inhibitor, full curve, poor fit]
CCOC(=O)c1cc(-c2ccccc2)sc1NC(=O)CN1C(=O)NC(CC)(c2ccc(F)cc2)C1=O (stereo not given) | inconclusive: 100 µM [inhibitor, partial curve, poor fit]
O=C([C@H]1C[C@H](Oc2ccccc2)CN1C(=O)Cc1cccc(F)c1)N1CCOCC1 | inactive
CCCCN(CCCC)Cc1cc(=O)oc2cc(C)cc(C)c12 | inconclusive: 50.1 µM [inhibitor, partial curve, poor fit]
Cc1cc(NC(=O)C2CCN(S(=O)(=O)c3cccs3)CC2)no1 | inconclusive: 79.4 µM [inhibitor, single point]
CCN(Cc1ccc2c(c1)OCO2)C(=O)c1cc2cc(Br)ccc2[nH]1 | inconclusive: 11.2 µM [inhibitor, full curve]
CCOc1ccc(C(=O)Nc2cccc(NC(=O)c3ccc(Cl)cc3Cl)c2)cc1 | inconclusive: 89.1 µM [inhibitor, partial curve, poor fit]
Cc1ccc(-n2nc(C)c([C@@H]3C=C[C@@H](NS(=O)(=O)c4cccs4)C3)c2C)cc1Cl | inconclusive: 20 µM [inhibitor, full curve]
C=C[C@H]1C(C(=O)OCC)=CC[C@@H](c2ccccc2)N1S(=O)(=O)c1ccc(C)cc1 | inactive

SMILES | Potency
CCCCCCCCCCCCCCCC[N+](C)(C)Cc1ccc(F)cc1 | active: 44.7 µM
COc1ccc(OC)c(CN2CCN(Cc3ccc(OC)c(OC)c3OC)CC2)c1 | inconclusive: 0.562 µM [inhibitor, full curve]
Cc1ccc(C2C3=C(CC(C)(C)CC3=O)Nc3c2c(=O)n(C)c(=O)n3C)cc1 (stereo not given) | inconclusive: 44.7 µM [inhibitor, partial curve, poor fit]
Cc1ccccc1NC(=O)CN1C(=O)c2ccccc2C1=O | inconclusive: 126 µM [inhibitor, single point]
Cc1ccccc1-c1nc(-c2c(C)noc2C)cc2cc(CN(C)C)oc12 | inactive
COc1cccc(NC(=O)Cn2nnc(C(=O)NCc3ccc4c(c3)OCO4)c2N)c1 | inconclusive: 100 µM [inhibitor, partial curve, poor fit]
CCOCCCNC(=O)c1cn(CC(C)C)c(=O)c2c1c1ccccc1n2C | inconclusive: 35.5 µM [inhibitor, single point]
Cc1ccc(Cc2c(-c3ccc(C)cc3)nc3ccc(Br)cn23)cc1 | active: 10 µM
O=C(c1ccccc1)N1CCCCC(S(=O)(=O)c2ccccc2)C1=O (stereo not given) | inactive
Cc1nn(Cc2ccccc2)c(C)c1[C@@H]1C=C[C@@H](NC(=O)NC(C)C)C1 | inconclusive: 31.6 µM [inhibitor, full curve]
CC1=NN(c2ccccc2)C(=O)C1/C=C1\NC(=S)NC1=O (stereo not given) | inconclusive: 15.8 µM [inhibitor, partial curve, poor fit]
CCOC(=O)CSC1=Nc2ccccc2C2=NC(CC(=O)NCc3cccs3)C(=O)N12 (stereo not given) | inconclusive: 22.4 µM [inhibitor, partial curve, poor fit]
CCOc1ccc(CN(CC)Cc2cc(=O)oc3ccc(C)cc23)cc1 | inconclusive: 50.1 µM [inhibitor, single point]
Cc1ccc(-c2[nH]ncc2CNC(C)c2cccs2)cc1 (stereo not given) | inactive
NS(=O)(=O)c1ccc(NC(=O)CN2CCN(S(=O)(=O)c3ccc(F)cc3)CC2)cc1 | inactive
COCCNC(=O)C1(C)Cc2c(-c3cccc(C(N)=O)c3)ccnc2O1 (stereo not given) | inconclusive: 44.7 µM [inhibitor, single point]
O=Cc1c(-c2ccc(Cl)cc2)[nH]c2ccccc12 | inconclusive: 79.4 µM [inhibitor, single point]
c1cnc2[nH]cc(-c3nc4ccncc4[nH]3)c2c1 | inactive
CC(C)CNC(=S)NC(=O)c1ccc([N+](=O)[O-])cc1 | inconclusive: 39.8 µM [inhibitor, partial curve, poor fit]
COc1ccc(OC)c(C(C)NC(=S)NC2CCCCC2)c1 (stereo not given) | inconclusive: 50.1 µM [inhibitor, single point]
CCOc1ccccc1CN1CCC2(CCN(C(=O)c3ccc(C)cc3)CC2)Oc2ccccc21 | inconclusive: 70.8 µM [inhibitor, single point]
O=C1CSc2ccc(C(=O)Nc3ccc(OC(F)F)cc3)cc2N1 | inconclusive: 44.7 µM [inhibitor, partial curve, poor fit]

A second format for 2 compounds above.
SMILES,Potency
CCOc1ccc(CN(CC)Cc2cc(=O)oc3ccc(C)cc23)cc1,"inconclusive: 50.1 µM [inhibitor, single point]"
Cc1ccc(-c2[nH]ncc2CNC(C)c2cccs2)cc1 (stereo not given),inactive

The results go on.

SMILES | Potency
COc1cc2c(cc1OC)/C(=C/C#N)NC(C)(C)C2 | inconclusive: 5.62 µM [inhibitor, full curve, poor fit]
COc1ccc(C(=O)NC(=S)Nc2ccc(Cc3ccncc3)cc2)cc1 | inconclusive: 25.1 µM [inhibitor, partial curve]
O=C(NCc1ccc(Cl)cc1)c1nccnc1CO | inconclusive: 20 µM [inhibitor, single point]
Cc1cccn2c(=O)c3cc(C#N)c(=O)n(-c4nnc(SCc5ccc(F)cc5)s4)c3nc12 | inconclusive: 63.1 µM [inhibitor, partial curve, poor fit]
CCCC(=O)N1c2ccccc2-c2nnc(SC)nc2OC1C (stereo not given) | inactive
CC(=O)c1c(C)n(-c2ccccc2C)c2ccc(O)cc12 | inconclusive: 89.1 µM [inhibitor, partial curve, poor fit]
CNC(=O)NC(=O)C(C)Sc1ncnc2ccccc12 (stereo not given) | inconclusive: 126 µM [inhibitor, single point]
COc1ccc2cc(C(=O)N3CCN(c4ccccc4F)CC3)[nH]c2c1 | inconclusive: 89.1 µM [inhibitor, single point]
O=C1NN(c2ccc(F)cc2)C(=O)/C1=C/c1cccs1 | inconclusive: 11.2 µM [inhibitor, full curve, poor fit]
Cc1nn(C)c2ncnc(NCc3nn[nH]n3)c12 | inconclusive: 10 µM [inhibitor, full curve]
Cc1ccccc1C(=O)Nc1ccc(N(C)C)cc1 | inconclusive: 44.7 µM [inhibitor, partial curve, poor fit]
CCc1cc(CC)n(-c2nc3c(c(=O)n(CC(N)=O)c(=O)n3C)n2CC(C)C)n1 | inactive
COc1ccc(C(=O)OC(C)CN2CCOCC2)cc1 (stereo not given) | inconclusive: 17.8 µM [inhibitor, partial curve, poor fit]
CCOc1cc(CNCCCN2CCOCC2)cc(Br)c1OCC(=O)Nc1cccc(C(F)(F)F)c1 | inconclusive: 28.2 µM [inhibitor, full curve, poor fit]
COc1ccccc1Nc1ncc2c(n1)CCN(Cc1cc(F)cc(F)c1)C2 | inconclusive: 70.8 µM [inhibitor, partial curve, poor fit]
COc1cc(NC(=O)c2ccccc2)c(OC)cc1NC(=O)Cc1ccc(F)cc1 | inactive
CCOC(=O)c1ccc(Nc2nc(-c3ccccc3)no2)cc1 | inactive
O=C(CN1CCCC1)Nc1ccc(F)c(Cl)c1 | inconclusive: 112 µM [inhibitor, partial curve, poor fit]
CC(C)(C)c1ccc2c(c1)N(CC(=O)O)C(=O)CO2 | inactive
Cc1ccc(S(=O)(=O)CC(=O)Nc2nc3c(C)cccc3s2)cc1 | inconclusive: 14.1 µM [inhibitor, full curve, poor fit]
Cc1ccc(-c2c3c(=O)n(C)c(=O)n(C)c3c3cnc4ccccc4n23)cc1 | inconclusive: 50.1 µM [inhibitor, partial curve, poor fit]

3 entries from above, ordered by heavy-atom count, low to high:
SMILES | Potency
c1cnc2[nH]cc(-c3nc4ccncc4[nH]3)c2c1 | inactive
COc1ccc(OC)c(C(C)NC(=S)NC2CCCCC2)c1 (stereo not given) | inconclusive: 50.1 µM [inhibitor, single point]
CCCCN(CCCC)Cc1cc(=O)oc2cc(C)cc(C)c12 | inconclusive: 50.1 µM [inhibitor, partial curve, poor fit]
